Reference: PubChem BioAssay AID328 (DTP/NCI, 2004)
The list is a part of this screen's results and no random one: it gathers tests that were run many times, whatever their T/C, doses with no T/C, and many T/C values between a quarter and a half above the control. Other doses and runs of a compound stand elsewhere. T/C is the treated group as % of the vehicle group. Some doses have a count of surviving animals in place of a T/C: the source holds a T/C of zero for them, seemingly a mark for toxic or unscored doses. Some survivor counts are full or nearly so, which does not show that the dose was tolerated: the source hardly ever lists a survival T/C far under the control, and the zero likely stands for such cases as well. Survivors were counted at the toxicity check, usually on the fifth day, unless a day is given; later deaths do not show. Schedules are NCI's codes, read here as Q, the interval in days (D) or hours (H), X, the number of doses. Some molecules as drawn cover several salts, stereoisomers or complexes of the source; a dose is that of the sample tested. For survival time, this PubChem deposit counts one and a half times the control or more as active, and values a quarter to a half above the control carry no call in these data; other NCI protocols may use other cut-offs. Some entries were tested several times; the values are given in rising order.

System: BDF1 mice, P388 leukemia ip, median survival T/C
Experiment: NCI In Vivo Anticancer Drug Screen. Data for tumor model P388 Leukemia (intraperitoneal) in B6D2F1 (BDF1) mice
Details: T/C endpoint: median survival time, higher T/C = longer survival
Method in brief: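 Each value expresses how treatment altered survival: treated-mouse outcome over vehicle-mouse outcome, both groups bearing the transplanted tumour.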

[1] = dose: 40.0 mg/kg/injection, schedule: Q01DX009 (ip), vehicle: saline
[2] = dose: 100.0 mg/kg/injection, schedule: Q04DX003 (ip), vehicle: saline with Tween-80
[3] = dose: 400.0 mg/kg/injection, schedule: Q04DX003 (ip), vehicle: saline
[4] = dose: 400.0 mg/kg/injection, schedule: Q04DX003 (ip), vehicle: water
[5] = dose: 80.0 mg/kg/injection, schedule: Q04DX003 (ip), vehicle: Klucel (hydroxypropylcellulose) (HPC)

`C/C=C1/C(=O)O[C@]23C=C[C@@H]4C(C(=O)OC)=CO[C@H](O[C@@H]12)[C@@H]43` was tested, and the T/C (dose: 620.0 micrograms/kg/injection, schedule: Q01DX009 (ip), vehicle: Klucel (hydroxypropylcellulose) (HPC)) was 126 % of control.
`Cc1ccc(S(=O)(=O)NC(=O)OC23COCN2COC3)cc1` was tested, and the T/C (dose: 100.0 mg/kg/injection, schedule: Q01DX009 (ip), vehicle: saline with Tween-80) was 127 % of control and the T/C (dose: 200.0 mg/kg/injection, schedule: Q01DX009 (ip), vehicle: saline with Tween-80) was 133 % of control.
For `[CH3][Sn]([CH3])([Cl])[S]CCN`, the T/C (dose: 3.12 mg/kg/injection, schedule: Q01DX009 (ip), vehicle: saline) was 137 % of control and the T/C (dose: 12.5 mg/kg/injection, schedule: Q01DX009 (ip), vehicle: saline) was 127 % of control.
In the case of `CC1(C)O[Te]2(OC1(C)C)OC(C)(C)C(C)(C)O2`, the survivor count (dose: 50.0 mg/kg/injection, schedule: Q01DX001 (ip), vehicle: saline with Tween-80) is reported as 0 of 6.
For `NC(CS/C(Cl)=C/Cl)C(=O)O` (centres undefined), the survivor count (dose: 1.5 mg/kg/injection, schedule: Q01DX009 (ip), vehicle: saline) was 6 of 6, the survivor count (dose: 12.0 mg/kg/injection, schedule: Q01DX009 (ip), vehicle: saline) was 6 of 6 and the survivor count [1] was 2 of 6.
In the case of `COc1cc2c3cc1Oc1c(OC)c(OC)cc4c1C(Cc1ccc(OC(C)=O)c(c1)Oc1ccc(cc1)CC3N(C)CC2)N(C)CC4` (centres undefined), the survivor count [2] is reported as 6 of 6.
With `CN(C)c1ccc(/C=C/c2ccncc2)cc1` the T/C (dose: 6.25 mg/kg/injection, schedule: Q01DX009 (ip), vehicle: saline with Tween-80) was 125 % of control and the survivor count (dose: 12.5 mg/kg/injection, schedule: Q01DX009 (ip), vehicle: saline with Tween-80) was 0 of 6.
For `COc1cc2c[n+](C)c3c4cc(OC)c(OC)cc4ccc3c2cc1OC`, the T/C (dose: 12.5 mg/kg/injection, schedule: Q01DX009 (ip), vehicle: Klucel (hydroxypropylcellulose) (HPC)) was 134 % of control, the T/C (dose: 12.5 mg/kg/injection, schedule: Q01DX009 (ip), vehicle: other) was 142 % of control and the T/C (dose: 20.0 mg/kg/injection, schedule: Q01DX009 (ip), vehicle: saline) was 140 % of control. For the same compound, the T/C (dose: 25.0 mg/kg/injection, schedule: Q01DX009 (ip), vehicle: Klucel (hydroxypropylcellulose) (HPC)) was 142 % of control, the T/C [1] was 145 % of control and the T/C (dose: 50.0 mg/kg/injection, schedule: Q01DX009 (ip), vehicle: Klucel (hydroxypropylcellulose) (HPC)) was 142 % of control. For the same compound, the T/C (dose: 100.0 mg/kg/injection, schedule: Q04DX003 (ip), vehicle: water) was 148 % of control, the survivor count (dose: 200.0 mg/kg/injection, schedule: Q01DX009 (ip), vehicle: other) was 6 of 6 and the T/C (dose: 240.0 mg/kg/injection, schedule: Q04DX003 (ip), vehicle: saline) was 145 % of control. The T/C [3] was 140 and 145 % of control, the survivor count [3] was 4 of 6 and the T/C [4] was 134 % of control. The survivor count (dose: 600.0 mg/kg/injection, schedule: Q04DX003 (ip), vehicle: saline) was 3 of 6.
`COc1cc(NS(C)(=O)=O)ccc1Nc1c2ccccc2nc2c(C)cccc12` was tested, and the survivor count (dose: 5.0 mg/kg/injection, schedule: Q01DX009 (ip), vehicle: Klucel (hydroxypropylcellulose) (HPC)) was 6 of 6, the survivor count (dose: 10.0 mg/kg/injection, schedule: Q01DX009 (ip), vehicle: Klucel (hydroxypropylcellulose) (HPC)) was 6 of 6 and the survivor count (dose: 20.0 mg/kg/injection, schedule: Q01DX009 (ip), vehicle: Klucel (hydroxypropylcellulose) (HPC)) was 6 of 6. For the same compound, the survivor count (dose: 37.0 mg/kg/injection, schedule: Q04DX003 (ip), vehicle: gum acacia) was 6 of 6.
With `Cc1cc(NCCN(C(C)C)C(C)C)nc(/N=C(\N)Nc2ccc(Cl)c(C(F)(F)F)c2)n1` the T/C (dose: 8.8 mg/kg/injection, schedule: Q04DX003 (ip), vehicle: Klucel (hydroxypropylcellulose) (HPC)) was 125 % of control, the T/C (dose: 13.0 mg/kg/injection, schedule: Q04DX003 (ip), vehicle: Klucel (hydroxypropylcellulose) (HPC)) was 125 % of control and the T/C (dose: 20.0 mg/kg/injection, schedule: Q04DX003 (ip), vehicle: Klucel (hydroxypropylcellulose) (HPC)) was 127 % of control. The survivor count (dose: 40.0 mg/kg/injection, schedule: Q01DX009 (ip), vehicle: Klucel (hydroxypropylcellulose) (HPC)) was 0 of 6, the T/C (dose: 40.0 mg/kg/injection, schedule: Q04DX003 (ip), vehicle: Klucel (hydroxypropylcellulose) (HPC)) was 131 % of control and the survivor count (dose: 60.0 mg/kg/injection, schedule: Q01DX009 (ip), vehicle: Klucel (hydroxypropylcellulose) (HPC)) was 0 of 6. The survivor count (dose: 60.0 mg/kg/injection, schedule: Q04DX003 (ip), vehicle: Klucel (hydroxypropylcellulose) (HPC)) was 6 of 6, the T/C [5] was 127 % of control and the survivor count [5] was 6 of 6. The survivor count (dose: 120.0 mg/kg/injection, schedule: Q04DX003 (ip), vehicle: Klucel (hydroxypropylcellulose) (HPC)) was 6 of 6.
`O=C1CCC2N1CCC1CCCCN12` (centres undefined) was tested, and the survivor count (dose: 200.0 mg/kg/injection, schedule: Q01DX009 (ip), vehicle: water) was 6 of 6, the survivor count (dose: 300.0 mg/kg/injection, schedule: Q01DX009 (ip), vehicle: water) was 0 of 6 and the survivor count [4] was 4 of 6.
`O=C1NC(c2ccccc2)(c2ccccc2)C(=O)N1CCN(CCCl)CCCl` was tested, and the T/C (dose: 9.2 mg/kg/injection, schedule: Q04DX003 (ip), vehicle: saline with Tween-80) was 125 % of control, the T/C (dose: 50.0 mg/kg/injection, schedule: Q04DX003 (ip), vehicle: saline with Tween-80) was 127 % of control and the survivor count [2] was 7 of 7. The survivor count (dose: 200.0 mg/kg/injection, schedule: Q04DX003 (ip), vehicle: saline with Tween-80) was 7 of 7 and the survivor count (dose: 400.0 mg/kg/injection, schedule: Q04DX003 (ip), vehicle: saline with Tween-80) was 4 of 7.
`COc1cc(-c2ccc(N=Nc3c(O)c(C(=O)Nc4ccccc4OC)cc4ccccc34)c(OC)c2)ccc1N=Nc1c(O)c(C(=O)Nc2ccccc2OC)cc2ccccc12` was tested, and the survivor count (dose: 50.0 mg/kg/injection, schedule: Q01DX005 (ip), vehicle: saline with Tween-80) was 5 of 5.
In the case of `CS(=O)(=O)NN`, the survivor count (dose: 75.0 mg/kg/injection, schedule: Q01DX009 (ip), vehicle: saline) is reported as 0 of 6, the survivor count (dose: 115.0 mg/kg/injection, schedule: Q01DX009 (ip), vehicle: saline) is reported as 0 of 6 and the survivor count (dose: 150.0 mg/kg/injection, schedule: Q04DX003 (ip), vehicle: saline) is reported as 0 of 6. For the same compound, the survivor count (dose: 170.0 mg/kg/injection, schedule: Q01DX009 (ip), vehicle: saline) was 0 of 6.
`CC(C)(C)OC(=O)NNC(=O)c1ccc([N+](=O)[O-])cc1` was tested, and the survivor count (dose: 100.0 mg/kg/injection, schedule: Q01DX009 (ip), vehicle: Klucel (hydroxypropylcellulose) (HPC)) was 6 of 6.
In the case of `O=C(NC1CCCC2C(NC(=O)c3ccccc3)CCCC12)c1ccccc1` (centres undefined), the survivor count (dose: 66.0 mg/kg/injection, schedule: Q01DX009 (ip), vehicle: saline) is reported as 6 of 6 and the T/C (dose: 100.0 mg/kg/injection, schedule: Q01DX009 (ip), vehicle: saline) is reported as 130 % of control.
For `CC(=O)OC1(C)CC(C)C(O)C(C(O)CC2CC(=O)NC(=O)C2)C1` (centres undefined), the T/C (dose: 1.0 mg/kg/injection, schedule: Q01DX010 (ip), vehicle: water, evaluated on day 30) was 140 % of control, the T/C (dose: 1.0 mg/kg/injection, schedule: Q01DX010 (ip), vehicle: water, run until all animals had died) was 140 % of control and the survivor count (dose: 6.0 mg/kg/injection, schedule: Q01DX010 (ip), vehicle: other) was 5 of 6. For the same compound, the survivor count (dose: 9.0 mg/kg/injection, schedule: Q01DX010 (ip), vehicle: other) was 3 of 6.
In the case of `CCCCOC1CC2c3ccccc3C1c1cccc[n+]12` (centres undefined), the survivor count (dose: 35.0 mg/kg/injection, schedule: Q01DX009 (ip), vehicle: saline) is reported as 5 of 6, the survivor count (dose: 55.0 mg/kg/injection, schedule: Q01DX009 (ip), vehicle: saline) is reported as 0 of 6 and the survivor count (dose: 75.0 mg/kg/injection, schedule: Q04DX003 (ip), vehicle: saline) is reported as 2 of 6. For the same compound, the survivor count (dose: 80.0 mg/kg/injection, schedule: Q01DX009 (ip), vehicle: saline) was 0 of 6.
With `CCN(CC)Cc1nccn1-c1ccc([N+](=O)[O-])cc1C(=O)c1ccccc1Cl` the survivor count (dose: 200.0 mg/kg/injection, schedule: Q01DX009 (ip), vehicle: saline) was 0 of 6.
